# Data reported in PubChem BioAssay AID540275 (National Center for Advancing Translational Sciences (NCATS), 2011).
# Chains of the proteins cited; added tags and fusions are not shown.
# UniProt Q8NER1, whole entry, looked up: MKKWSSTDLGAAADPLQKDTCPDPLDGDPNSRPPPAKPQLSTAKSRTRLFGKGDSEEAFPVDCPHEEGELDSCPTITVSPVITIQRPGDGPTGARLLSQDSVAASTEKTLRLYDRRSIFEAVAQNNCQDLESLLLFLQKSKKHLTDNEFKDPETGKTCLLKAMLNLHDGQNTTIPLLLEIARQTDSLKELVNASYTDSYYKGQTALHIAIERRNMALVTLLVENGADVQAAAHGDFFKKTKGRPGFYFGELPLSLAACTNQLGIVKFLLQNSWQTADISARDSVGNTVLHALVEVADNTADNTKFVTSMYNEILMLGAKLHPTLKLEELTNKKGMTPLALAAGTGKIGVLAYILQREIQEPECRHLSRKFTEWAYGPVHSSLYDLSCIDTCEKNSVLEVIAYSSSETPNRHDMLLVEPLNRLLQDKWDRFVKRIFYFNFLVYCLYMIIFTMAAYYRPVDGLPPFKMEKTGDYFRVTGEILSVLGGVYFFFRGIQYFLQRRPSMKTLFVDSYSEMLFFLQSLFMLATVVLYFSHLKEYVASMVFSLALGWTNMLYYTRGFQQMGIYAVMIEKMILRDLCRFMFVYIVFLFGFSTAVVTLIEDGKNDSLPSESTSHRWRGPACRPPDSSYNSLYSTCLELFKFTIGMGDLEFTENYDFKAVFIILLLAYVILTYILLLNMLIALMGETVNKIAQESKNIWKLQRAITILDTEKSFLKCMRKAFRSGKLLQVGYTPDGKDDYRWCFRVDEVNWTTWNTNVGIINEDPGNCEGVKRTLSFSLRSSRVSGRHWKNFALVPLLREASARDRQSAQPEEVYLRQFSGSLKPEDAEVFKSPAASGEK
# The campaign covered roughly 320,000 compounds. About 620 (0.19%) were called active. Inconclusive means that the source gave no clear call. Such entries were picked first, then a sample of the others. Cut-off read from the data, not from the text of the source: active = activation above about 80%; inconclusive = between about 30% and that limit; inactive = weaker than that.
# Target: Transient receptor potential cation channel subfamily V member 1 (Homo sapiens) (UniProt Q8NER1)
# Assay: HTS Assay for Compounds that Act as Agonists of the Vanilloid Receptor 1; note: 0% is about no effect
# Conditions: TRPV1-expressing cells, Fluo-8 calcium influx, agonist mode; at 8.33 µM, active compounds read high
# Summary of the method: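 Cells expressing TRPV1 were dye-loaded with Fluo-8 and read kinetically: 10 s baseline, 3 min after compound (agonist portion), then 2 min after EC20 capsaicin (allosteric enhancer portion). Calcium-bound dye fluorescence at 480/520 nm.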
row,Structure (SMILES),activation
1,COc1ccc(C2=C(Nc3ccccc3)c3ccccc3C2=O)cc1,inconclusive: 37.6%
2,O=C(Nc1cnc2ccccn2c1=O)c1ccc(Cl)cc1Cl,inactive: 8.63%
3,CCOC(=O)[C@H]1[C@H]2COc3ccc(Cl)cc3[C@@H]2N2C(=O)c3ccc(Cl)cc3NC(=O)[C@@]12C,active: 87.2%
4,O=C(/C=C/c1ccc(Cl)c([N+](=O)[O-])c1)c1ccc(O)cc1,active: 83.8%
5,C/C(=N\O)C(C)(C)NC(=O)Nc1ccc(Cl)cc1,inactive: 14.2%
6,Cc1nn(-c2cccc(Cl)c2)c(Cl)c1/C=N/NC(=O)c1cccnc1,inconclusive: 36.7%
7,COCCCNC(=O)CS(=O)Cc1nc(-c2ccccc2C)oc1C (stereo not given),inactive: 2.37%
8,Cc1ccc(-c2csc3ncnc(SCC(=O)NCC4CCCO4)c23)cc1 (stereo not given),inconclusive: 31.4%
9,CC(C)c1ccc(N(CC(=O)NCc2ccco2)C(=O)CCC(=O)Nc2ccccn2)cc1,inactive: -1.28%
10,FC(F)(F)c1cc(-c2ccccc2)nc(-n2cc(Cl)cn2)n1,inconclusive: 49.1%
11,COc1cc(SC)ccc1C(=O)Nc1cc(C)ccn1,inconclusive: 32.5%
12,COc1ccccc1N1C(=O)c2ccc(C(=O)Nc3ccc(F)cc3)cc2C1=O,inconclusive: 45.3%
13,O=C(Nc1ccc(Oc2ccc3ccccc3c2)cc1)c1ccco1,inconclusive: 30.5%
14,Cc1cc(C)cc(NC(=O)c2ccc([N+](=O)[O-])o2)c1,inconclusive: 30.9%
15,S=C(NCc1ccccc1)Nc1cccc(Cl)c1,inconclusive: 35%
16,COC(=O)c1ccc(N)cc1O,inactive: 1.03%
17,CCOc1ccc(NC(=O)NC2CCCCCCC2)cc1,inconclusive: 46%
18,O=C(Cc1ccc(F)cc1)NC1CCCCCC1,inconclusive: 52.3%
19,O=C(Nc1cccc(Cl)c1)N1CCc2ccccc2C1,inconclusive: 56.6%
20,COc1ccc(/C=N/Nc2nc(Nc3ccccc3)nc(N3CCCCC3)n2)cc1OC,inactive: -1.21%

# Quoted from the listing:
# Under activation, `O=C(Nc1ccc(Oc2ccc3ccccc3c2)cc1)c1ccco1` shows inconclusive: 30.5%
# Under activation, `C/C(=N\O)C(C)(C)NC(=O)Nc1ccc(Cl)cc1` shows inactive: 14.2%
# Under activation, `COc1ccc(C2=C(Nc3ccccc3)c3ccccc3C2=O)cc1` shows inconclusive: 37.6%
# Under activation, `FC(F)(F)c1cc(-c2ccccc2)nc(-n2cc(Cl)cn2)n1` shows inconclusive: 49.1%

# Next entries follow.

row,Structure (SMILES),activation
1,O=C(NCc1ccc2c(c1)OCO2)c1cc(-c2ccccc2)on1,inconclusive: 69.4%
2,COc1ccccc1N1CCN(C2CCCN(C(=O)c3cccc(-c4ccco4)c3)C2)CC1 (stereo not given),inconclusive: 30.4%
3,C/C=C(\C)C(=O)OC(C)(C)[C@@H]1Cc2cc3ccc(=O)oc3cc2O1,inactive: 26.6%
4,COc1cnc(-c2ccccc2)nc1Oc1ccccc1C,inconclusive: 37.2%
5,CCCOc1ccc(C(=O)Nc2ccc3c(c2)OCO3)cc1,inconclusive: 35.1%
6,CC(C)c1cc(C(=O)NNC(=S)NC2CCCCC2)cs1,inconclusive: 41.6%
7,Nc1ncccc1OCc1ccc(Cl)c(Cl)c1,inconclusive: 32.5%
8,Cc1nonc1C(=O)N1CCCC(Nc2ccc(C(C)C)cc2)C1 (stereo not given),inconclusive: 64.7%
9,CC1CCc2sc(C(=O)N3CCC(C(N)=O)CC3)cc2C1 (stereo not given),inconclusive: 31.9%
10,CC(=O)N1CC(C)Sc2ccc(S(=O)(=O)NCCc3ccccc3)cc21 (stereo not given),inconclusive: 57.6%
11,COc1ccc(NC(=O)CCSc2ccc3ccccc3n2)cc1,inconclusive: 36.2%
12,O=c1c2ccccc2[nH]c(=S)n1Cc1ccccc1Cl,inconclusive: 36.4%
13,Cc1ccccc1OCC(=O)NCCc1nc2ccccc2[nH]1,inconclusive: 32.6%
14,N#Cc1c(N)nc(-c2ccccc2)nc1-c1ccccc1,inconclusive: 45.5%
15,Fc1ccc(C2=CC(c3ccco3)n3ncnc3N2)cc1 (stereo not given),inconclusive: 32.9%
16,CCc1ccc(-n2c(C)cc(/C=N/NC(=O)OC)c2C)cc1,inconclusive: 51.3%
17,CCC(C)NC(=O)c1cn(CC)c2ccc(S(=O)(=O)N3CCCCCC3)cc2c1=O (stereo not given),inconclusive: 53%
18,CCOc1ccc(OCC)c(NC(=O)CCS(=O)(=O)c2ccc(Br)s2)c1,inconclusive: 50.2%
19,Cc1c(Cl)cccc1Nc1nc(N)nc(CSC(=S)N2CCOCC2)n1,inconclusive: 34.6%
20,COc1ccc(NC(=O)c2cccc(Cn3cc(Br)c([N+](=O)[O-])n3)c2)c(C)c1,inconclusive: 50.2%

row,Structure (SMILES),activation
1,Cc1ccc(C(=O)N[C@H](C(=O)Nc2sccc2C(N)=O)C(C)C)cc1,inconclusive: 38.8%
2,O=C(Cc1coc(-c2ccc(F)cc2)n1)Nc1ccccc1,inconclusive: 65.8%
3,COCC(=O)OCn1nnc2ccccc2c1=O,inactive: -2.99%
4,COc1ccc(CC(=O)Nc2cccc(SC)c2)cc1OC,active: 101%
5,O=C(NCc1ccc(F)cc1)C1CCCN1C(=O)Nc1ccc(Cl)cc1 (stereo not given),inactive: 0.707%
6,CCOc1ccc(N2C(=O)C(Cl)=C(N3CCOCC3)C2=O)cc1,inconclusive: 50.2%
7,CCCC(=O)Nc1nc(C)c(-c2csc(Nc3cc(OC)ccc3OC)n2)s1,inactive: 1.43%
8,Cc1ccc(CN2C(=O)CSc3ccc(C(=O)NC4CC4)cc32)cc1,inconclusive: 36.3%
9,COc1ccc(OC)c(N(CC(=O)NC2CC3CCC2C3)S(=O)(=O)c2ccccc2)c1 (stereo not given),inconclusive: 30.2%
10,Cc1ccc(O)c(/C=N/NC(=O)CN2CCCC2)c1,inactive: 1.31%
11,O=C(NNC(=O)c1ccccc1OCc1ccc(F)cc1)c1ccccc1O,inconclusive: 33.1%
12,Cc1ccc(NC(=O)c2ccc(NCc3ccco3)c([N+](=O)[O-])c2)cc1Cl,inconclusive: 48.5%
13,Cc1ccc(NC(=O)c2ccc(Cl)cc2Cl)cc1O,inconclusive: 65.9%
14,CC(C)c1c(C(=O)N/N=C/c2cccs2)nnn1-c1nonc1N,inconclusive: 32.1%
15,COC(=O)C1=C(C(=O)OC)N2C=CC=CC2(C)C(C(=O)OC)=C1C(=O)OC (stereo not given),inactive: 15.6%
16,O=C(COc1ccccc1F)N1N=C(c2cccs2)CC1c1ccco1 (stereo not given),inactive: 0.228%
17,CCOc1ccc(NC(=O)Nc2nc(SCC)ns2)cc1,inactive: -1.25%
18,Cc1cc(Cl)ccc1NC(=S)NCc1ccc(F)cc1,inconclusive: 48.3%
19,CCOc1ccc(C(CC(=O)O)NC(=O)C(c2ccccc2)c2ccccc2)cc1OC (stereo not given),inconclusive: 33.3%
20,O=C(NCc1ccccc1F)c1cccc(S(=O)(=O)N2CCCCCC2)c1,inconclusive: 30.3%
